Data taken from ChEMBL document CHEMBL3988442, “University of Dundee, Small-Polar-MMV Screening Library” (2021).

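Viability assay of Plasmodium falciparum sporozoites; the read-out is not stated. The concentration is filed as 10 mM, unlikely as a test dose, so the dose is not known. Higher reads as lower viability (inferred: compounds with an IC50 in retests scored well above the rest). Strong results were mostly tested again. Of about 34,000 compounds tested this way, about 280 (0.84%) reached 50% or more in at least one test.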

Each number is a percent effect as filed.
The controls that fix the scale are not given in the record; negative values are as filed.
Compounds were drawn at random from those tested, without regard to their results.
Two or more numbers in one place are separate tests of the same structure; such repeats can differ widely.

| # | structure | effect |
|---|---|---|
| 1 | `[H][C@]12CCN(C(=O)NCc3ccccc3)C[C@@]1([H])OCCN(C(C)=O)C2` | 10.45 |
| 2 | `CCCN1CCCCCC1Cc1c(C(=O)NC)sc2ccccc12` (stereo not drawn) | 9.05 |
| 3 | `CNc1cc(C)nc(N2CCN(Cc3ccccc3)CC(O)C2)n1` (stereo not drawn) | 0.9923 |
| 4 | `CN1CCCC2(CCN(C(=O)Cn3ncc4ccccc4c3=O)C2)C1=O` (stereo not drawn) | 1.74 |
| 5 | `O=C(O)C(F)(F)F.O=C(O)C(F)(F)F.[H][C@@]12OCCN(Cc3ccc(C)o3)[C@@]1([H])CC[C@@H]2OCc1cccnc1` | -7.531 |
| 6 | `Cc1ccc(NC2CCN(C(=O)CCc3nccs3)CC2)nn1` | 3.538 |
| 7 | `CCC(=O)Nc1nnc(CCCOc2ccccc2)s1` | -3.728 |
| 8 | `Cn1cnnc1C1CCCN(C(=O)NCCc2ccccc2F)C1` (stereo not drawn) | -14.1 |
| 9 | `Cc1nn(C)cc1-c1cc(C(=O)NCC(C)(C)c2ccc(F)cc2)n[nH]1` | -2.266 |
| 10 | `O=C(c1ccc(O)cc1)N1CCN(C(=O)c2ccc3c(c2)COC3)CC1` | -11.1 |
| 11 | `Cc1noc(Cl)c1CCC(=O)N1CCc2sccc2C1` | -6.618 |
| 12 | `CCn1cc(NC(=O)NCC(c2cccc(F)c2)N(C)C)cn1` (stereo not drawn) | 1.979 & -32.42 & -31.9 |
| 13 | `Cc1occc1C(=O)N1CCC[C@]2(C[C@@H](OCc3ccccn3)CO2)C1.O=C(O)C(F)(F)F` | 16.41 |
| 14 | `O=C(O)C(F)(F)F.[H][C@]12CC[C@@]3(N=C(C)N(CC(C)C)C3=O)[C@@]1([H])CNC2` | -3.886 |
| 15 | `O=C(CCc1nccs1)N1CCN(c2nccs2)CC1` | -10.71 |
| 16 | `O=C(c1ccc2c(c1)OCO2)N1CCCC(n2cccn2)C1` (stereo not drawn) | -7.04 |
| 17 | `Cn1ncc(NCc2cccc(OCC(F)(F)F)c2)c(Cl)c1=O` | -7.953 |
| 18 | `COc1ccc2c(c1)CN(C)C(=O)CCN2CC(O)C(C)(C)C` (stereo not drawn) | -31.88 |
| 19 | `NC(=O)c1ccc(C(=O)N2CCCCC2Cn2cccn2)s1` (stereo not drawn) | 9.081 |
| 20 | `O=c1[nH]c(CN2CCCC(Cn3cncn3)C2)nc2ccccc12` (stereo not drawn) | 18.68 |
| 21 | `CCN(Cc1nc(COC)no1)C(=O)CCn1c(C)cc2ccccc21` | -20.89 |
| 22 | `O=C(O)C(F)(F)F.O=C(O)C(F)(F)F.[H][C@@]12OCCN(Cc3cc(C)on3)[C@@]1([H])CC[C@H]2OCc1csc(C)n1` | -17.45 |
| 23 | `Cn1ccnc1CN1CCCN(C(=O)c2ccc3[nH]cnc3c2)CC1` | 5.076 |
| 24 | `CNC(=O)C1CCN(CC(=O)Nc2cc(C(C)C)no2)CC1` | 3.984 |
| 25 | `[H][C@]12CCC[C@@]1(COc1cccnc1)CN(C(=O)Cc1ccco1)C2` | 13.37 |
| 26 | `CN(C)C(=O)CC1CC2(CCN(C(=O)N(C)C)CC2)Oc2ccccc21` (stereo not drawn) | -0.2307 |
| 27 | `COc1ccc(Cl)cc1C(=O)N1CCCC(c2cc(C)[nH]n2)C1` (stereo not drawn) | 8.564 |
| 28 | `CC(C)n1ccc(C(=O)OCC2CC(=O)N(Cc3ccccc3)C2)n1` (stereo not drawn) | -17.56 |
| 29 | `CC1CCCCN1c1nc2c(c(=O)[nH]1)CCN(Cc1ccccc1O)C2` (stereo not drawn) | -4.184 |
| 30 | `NC(=O)CN(C(=O)c1cccc(C(F)(F)F)c1)C1CCCC1` | -0.6857 |
| 31 | `CCS(=O)(=O)N1CCC2(CCCN(Cc3cc(OC)ccc3F)C2)C1` (stereo not drawn) | -1.399 & -2.879 & 17.47 |
| 32 | `Cc1nc(CN2CCOC(Cn3cccn3)C2)no1` (stereo not drawn) | -18.35 |
| 33 | `CC(NC(=O)NCCCn1cncn1)c1ccc(C#N)cc1` (stereo not drawn) | 7.954 |
| 34 | `CCn1cnnc1CNC(=O)c1cc(Cl)ccc1F` | -3.701 |
| 35 | `Cc1ccc(C(=O)N2Cc3c(CN4CCCCC4)nn(C)c3C2)o1.O=C(O)C(F)(F)F` | -10.52 |
| 36 | `CC(C(=O)N1CCCC1)N1CCC(c2nccn2Cc2cscn2)CC1` (stereo not drawn) | 12.79 |
| 37 | `COc1ccccc1C(=O)Nc1nc2c(s1)CN(S(=O)(=O)C1CC1)CC2` | 82.29 & 80.43 |
| 38 | `CC(NC(=O)NCCCn1cncn1)c1ccccc1Cl` (stereo not drawn) | -8.333 |
| 39 | `CCOc1ncccc1NC(=O)NC1CCN(c2ncccn2)CC1` | -5.469 |
| 40 | `Cc1ccc(C2(CN(C)Cc3c(C)nn(C)c3C)CCNCC2)nc1` | -20.42 |
| 41 | `CN(C)CCO[C@H]1C[C@@H](O)C12CCN(c1cnccn1)CC2` | -5.351 |
| 42 | `Cc1nc(C2CN(C)CCO2)cc(N2CCSCC2)n1` (stereo not drawn) | -0.8223 |
| 43 | `CCCc1cc(C(=O)N[C@@H]2CC[C@@H](N3CCOCC3)[C@@H]2O)no1` | 8.008 |
| 44 | `CCc1cc(N2CCSCC2)n2nc(C)c(C)c2n1` | -5.794 |
| 45 | `O=C(NCC1CCCO1)c1nc2c(s1)CCCN2CC1CC1` (stereo not drawn) | 5.396 |
| 46 | `CCc1noc(CN2CCN(C(=O)c3ccccc3F)CC2)n1` | 20 |
| 47 | `CC(C)(CNC(=O)CCCOc1cccc(F)c1)C(N)=O` | 5.485 |
| 48 | `CCc1n[nH]c(C2CN(C(=O)c3ccc4c(c3)CCCC4)CCO2)n1` (stereo not drawn) | 8.061 |
| 49 | `Cc1cc(F)c(S(=O)(=O)Nc2ccn(CCC#N)n2)cc1F` | -16.44 |
| 50 | `c1ccc(CCN2CCOC(Cn3cccn3)C2)nc1` (stereo not drawn) | -20.35 |
| 51 | `CCN(CC1CCCO1)C(=O)Nc1ccc(OC)c(C)c1` (stereo not drawn) | 11.45 |
| 52 | `COCC(=O)N1CCCC(c2cc(C(F)F)n3ncnc3n2)C1.Cl` (stereo not drawn) | -6.019 |
| 53 | `O=C(NCC1CCOC1)c1csc(-c2cccc(Cl)c2)n1` (stereo not drawn) | 8.994 |
| 54 | `O=C(c1cccc2[nH]ncc12)N1CCCC1c1noc(C2CC2)n1` (stereo not drawn) | 0.7401 |
| 55 | `O=C(CC1CC1)N1CCC2(CC1)CN(Cc1cccnc1)C(=O)CO2.O=C(O)C(F)(F)F` | -4.513 |
| 56 | `Fc1ccc(CN2CCCC(c3nnc(-c4cnccn4)o3)C2)cc1F` (stereo not drawn) | -20.97 |
| 57 | `COc1cccc(CN2CC[C@H](NC(C)=O)[C@@H](O)CC2)c1F` | 6.462 |
| 58 | `CCN(C(=O)c1nc2c(s1)CCCN2c1ccc(C)nn1)C(C)C` | -4.366 |
| 59 | `COCCn1cnnc1CNc1cc(C)nc2c(C)c(C)nn12` | -1.053 |
| 60 | `Cc1c[nH]nc1C1CCCN(C(=O)Cn2cccn2)C1` (stereo not drawn) | -4.519 |
| 61 | `CC(NC(=O)NCc1cccnc1N(C)C)c1cccs1` (stereo not drawn) | 3.939 |
| 62 | `O=C(Cc1ccccn1)N1CCN(CC2CC2)c2ncccc2C1` | -9.573 |
| 63 | `CCOc1ncccc1C(=O)NCCN(CC)C1CC1` | -4.057 |
| 64 | `O=C(O)C(=O)O.c1coc(CN2CCC(c3ccc4c(c3)OCO4)CC2)c1` | 3.988 |
| 65 | `N[C@@H]1CCC[C@@H](Oc2ccc(F)cc2Oc2cccc(F)c2)[C@@H]1O` | 1.841 |
| 66 | `COCCN1CCCC(c2ccnc3c(C(N)=O)cnn23)C1` (stereo not drawn) | 15.41 |
| 67 | `Cc1ccc(C)c(OCCC(=O)N2CCCN(CC(N)=O)CC2)c1` | 0.6901 |
| 68 | `Cc1ccc(C(=O)N2CCN(CCc3ccccc3)CC2)c(=O)[nH]1` | 7.978 |

For reference, 5 entries once more:

structure	effect
c1ccc(CCN2CCOC(Cn3cccn3)C2)nc1 (stereo not drawn)	-20.35
CN1CCCC2(CCN(C(=O)Cn3ncc4ccccc4c3=O)C2)C1=O (stereo not drawn)	1.74
O=C(NCC1CCCO1)c1nc2c(s1)CCCN2CC1CC1 (stereo not drawn)	5.396
CCCc1cc(C(=O)N[C@@H]2CC[C@@H](N3CCOCC3)[C@@H]2O)no1	8.008
Cc1ccc(C2(CN(C)Cc3c(C)nn(C)c3C)CCNCC2)nc1	-20.42